Values from PubChem BioAssay AID1224826 (NIAID, 2016).

Screen: 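Regulators of Tlr4 signalling leading to Tnf-alpha expression in macrophages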 (primary screen)
Cell system: RAW264.7 G9 macrophages from mouse bearing reporters for p65 (GFP) and the Tnf promoter (mCherry)
Reagents: siRNA pool against mouse genes, 100 nM
Time to read-out: 16 h of LPS stimulation, after 2 days of siRNA transfection
Conditions: bacterial lipopolysaccharide (Salmonella minnesota R595), 10 ng/ml
Measurement: 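Nuclear mCherry signal of the Tnf promoter reporter measured by imaging after background removal, scaled to each plate median and turned into robust z-scores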
Reading the numbers: Tnf reporter robust z-score: higher = stronger Tnf promoter reporter signal after LPS
Rule for the call: 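Called active when robust z-score is at most -1.3, matching the median of the Tlr4 knock-down control, or over 3; control wells and wells with under 50 cells never active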
Meaning of the calls: active = Tnf reporter clearly lowered or raised; inactive = no clear change in Tnf reporter
In all, the deposit lists about 17,000 reagents; shown is an unselected part. About 1,110 of them (6.6%) were called active. 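Active means lowered or raised reporter signal; replicate intensities are raw and not normalised per plate.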 Unmarked entries are inactive. Further read-outs or replicates are left out here.

Sms (spermine synthase) | Tnf reporter robust z-score: 0.47; fewer than 50 cells in well: enough cells in well
Kmo (kynurenine 3-monooxygenase) | Tnf reporter robust z-score: 0.27; fewer than 50 cells in well: enough cells in well
Ly6f (lymphocyte antigen 6 family member F) | Tnf reporter robust z-score: -0.03; fewer than 50 cells in well: enough cells in well
Alkbh5 (alkB homolog 5, RNA demethylase) | Tnf reporter robust z-score: -0.42; fewer than 50 cells in well: enough cells in well
Dpep3 (dipeptidase 3) | Tnf reporter robust z-score: 0.3; fewer than 50 cells in well: enough cells in well
Pglyrp2 (peptidoglycan recognition protein 2) | Tnf reporter robust z-score: 1.32; fewer than 50 cells in well: enough cells in well
Gprin3 (GPRIN family member 3) | Tnf reporter robust z-score: 1.64; fewer than 50 cells in well: enough cells in well
Tmem40 (transmembrane protein 40) | Tnf reporter robust z-score: -0.57; fewer than 50 cells in well: enough cells in well
Paox (polyamine oxidase (exo-N4-amino)) | Tnf reporter robust z-score: -1.91 (active); fewer than 50 cells in well: enough cells in well
Psmd9 (proteasome (prosome, macropain) 26S subunit, non-ATPase, 9) | Tnf reporter robust z-score: 1.32; fewer than 50 cells in well: enough cells in well
Prkcb (protein kinase C, beta) | Tnf reporter robust z-score: -0.82; fewer than 50 cells in well: enough cells in well
Gpr27 (G protein-coupled receptor 27) | Tnf reporter robust z-score: -0.54; fewer than 50 cells in well: enough cells in well
